Reference: paper PMC7871608
No constants are given. Whether binding was seen depends on the method and setting. In cells and extracts the contact can be indirect. Some binding calls cover weakened binding; strength is not graded here.

Chains of the proteins cited; added tags and fusions are not shown. Residues count along the entry.
UniProt Q96AY3, residues 27-582: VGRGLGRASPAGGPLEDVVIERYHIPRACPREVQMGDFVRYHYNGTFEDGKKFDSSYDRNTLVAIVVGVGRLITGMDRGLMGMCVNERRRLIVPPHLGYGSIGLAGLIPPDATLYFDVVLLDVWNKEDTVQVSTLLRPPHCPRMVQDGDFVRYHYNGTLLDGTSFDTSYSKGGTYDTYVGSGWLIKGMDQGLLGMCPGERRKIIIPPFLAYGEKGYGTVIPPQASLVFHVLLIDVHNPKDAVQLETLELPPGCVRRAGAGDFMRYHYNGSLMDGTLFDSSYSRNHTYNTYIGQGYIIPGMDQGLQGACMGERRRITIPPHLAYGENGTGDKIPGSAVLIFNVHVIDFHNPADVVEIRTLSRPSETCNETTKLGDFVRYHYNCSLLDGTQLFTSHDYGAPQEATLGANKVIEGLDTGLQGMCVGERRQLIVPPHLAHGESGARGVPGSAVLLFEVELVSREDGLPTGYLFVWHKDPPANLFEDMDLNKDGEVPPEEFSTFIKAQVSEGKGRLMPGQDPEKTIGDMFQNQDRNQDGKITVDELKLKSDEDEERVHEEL

Biological target: FK506 binding protein 10 (human (endogenous in U118MG and LN229)) (UniProt Q96AY3)
Test: co-IP; endogenous proteins; non-denaturing lysate of U118MG and LN229 cells; anti-FKBP10 or anti-Hsp47 antibody on protein G agarose, 4 °C overnight, washed with PBST, western blot

B1: Heat shock protein 47 (protein, UniProt P50454 19-418)
chain: AEVKKPAAAAAPGTAEKLSPKAATLAERSAGLAFSLYQAMAKDQAVENILVSPVVVASSLGLVSLGGKATTASQAKAVLSAEQLRDEEVHAGLGELLRSLSNSTARNVTWKLGSRLYGPSSVSFADDFVRSSKQHYNCEHSKINFRDKRSALQSINEWAAQTTDGKLPEVTKDVERTDGALLVNAMFFKPHWDEKFHHKMVDNRGFMVTRSYTVGVMMMHRTGLYNYYDDEKEKLQIVEMPLAHKLSSLIILMPHHVEPLERLEKLLTKEQLKIWMGKMQKKAVAISLPKGVVEVTHDLQKHLAGLGLTEAIDKNKADLSRMSGKKDLYLASVFHATAFELDTDGNPFDQDIYGREELRSPKLFYADHPFIFLVRDTQSGSLLFIGRLVRPKGDKMRDEL
binding: binds
